# Record: PubChem BioAssay AID686943 (Drosophila RNAi Screening Center, 2013)
# Test: 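Search across the genome for regulators of signalling from receptor tyrosine kinase to ERK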 (primary screen)
# Cells: Drosophila S2R+ haemocyte-like cells expressing YFP-tagged ERK (Rolled)
# Reagents: long dsRNA against Drosophila genes
# Conditions: insulin stimulation versus unstimulated cells; dose and duration not given
# Detection: 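Antibody staining for doubly phosphorylated ERK divided by ERK-YFP signal, as plate z-scores, in insulin-treated and untreated cells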
# Scale: replicate 1, z-score of dpERK with insulin and replicate 2, z-score of dpERK with insulin: higher = more active ERK per ERK-YFP after insulin; replicate 1, z-score of dpERK under basal conditions: higher = more basal active ERK per ERK-YFP; replicate 1, z-score of ERK-YFP with insulin: higher = more YFP-tagged ERK signal
# The deposit covers about 23,000 reagents; below is an unselected part of those that have a named target and a result. 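Extra replicates exist only for a retested subset of genes; insulin dose and duration not given; both raised and lowered dpERK matter.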 Reagents against one gene are numbered here. A plus sign joins genes that one reagent is predicted to hit. Not stated in the record: the amount of reagent, the time to read-out.
The opening 2 entries as a preview:
gene knocked down,reagent no.,"replicate 1, z-score of dpERK with insulin","replicate 2, z-score of dpERK with insulin","replicate 1, z-score of dpERK under basal conditions","replicate 1, z-score of ERK-YFP with insulin"
Ocrl (GeneID 31157),1,0.11,0.24,0.14,-2.58
CG15336 (GeneID 31742),1,0.3,1.18,0.02,0.63

The listing, repeating the preview:
gene knocked down,reagent no.,"replicate 1, z-score of dpERK with insulin","replicate 2, z-score of dpERK with insulin","replicate 1, z-score of dpERK under basal conditions","replicate 1, z-score of ERK-YFP with insulin"
Ocrl (GeneID 31157),1,0.11,0.24,0.14,-2.58
CG15336 (GeneID 31742),1,0.3,1.18,0.02,0.63
tld (GeneID 42945),1,0.43,1.09,-1.12,-0.13
CG4022 (GeneID 39082),1,-0.14,0.5,0.1,0.99
CG11141 (GeneID 35672),1,-0.41,-0.2,0.56,0.32
Sec61alpha (GeneID 33905),1,-0.9,-3.43,-0.3,0.21
Obp56b (GeneID 37265),1,0.65,0.55,-0.48,0.25
CG5776 (GeneID 34680),1,0.58,0.17,-0.64,0.51
CG33758 (GeneID 3772381),1,0.58,0.28,-0.42,-0.17
CG14628 (GeneID 31057),1,-0.14,-0.17,-0.56,-0.02
sced (GeneID 35564),1,0.52,1.41,-0.28,0.56
CG42671 (GeneID 39268),1,-3.07,-0.56,-0.6,-0.1
CG42671 (GeneID 39268),2,-0.46,0.38,1.08,0.74
Obp56f (GeneID 246668),1,-2.34,-3.41,-0.98,1.69
CG9014 (GeneID 34777),1,-0.17,0.33,1.5,0.36
CG17564 (GeneID 35205),1,0.11,-1.06,-0.51,0.67
mthl7 (GeneID 38910),1,2.31,0.49,0,-0.46
Vha55 (GeneID 41550),1,-1.05,-0.21,-0.45,-2.08
CG41020 (retired record) (GeneID 5740564),1,0.16,-1.34,0.15,1.52
amrt (GeneID 32342),1,0.07,-0.94,-0.57,0.67
CG3588 (GeneID 31278),1,0.54,0.27,-0.77,0.44
CG1233 (GeneID 38063),1,1.02,-0.34,0.16,-1.17
CG33257 (GeneID 2768960),1,0.33,0,0.54,-0.02
tay (GeneID 32547),1,-0.3,-0.03,0.72,0.17
PIG-A (GeneID 37020),1,-0.17,0.09,-0.03,-0.06
CG3748 (GeneID 34252),1,0.46,0.94,1.03,0.72
TH1 (GeneID 32607),1,1.22,0.96,-1.45,-0.29
Tusp (GeneID 43317),1,-0.63,-1.49,-0.61,0.5
CG9837 (GeneID 41057),1,0.58,0.98,0.11,0.51
CG5321 (GeneID 32399),1,1,0.33,0.01,-0.16
CG5321 (GeneID 32399),2,0.47,0.27,-0.68,1.4
Met75Ca + Met75Cb,1,1.19,1.32,1.86,0.22
Met75Ca + Met75Cb,2,-0.16,0.43,-0.02,0.31
RabX4 (GeneID 42960),1,0.27,-0.19,0.27,0.56
Os-C (GeneID 40942),1,0.27,1.13,-0.09,0.43
CG4829 (GeneID 32672),1,-0.66,-0.92,0.11,-0.19
CG31717 (GeneID 318911),1,0.26,-0.06,-0.27,0.34
tyf (GeneID 31363),1,0.33,-2.72,-0.33,0.48
dysf (GeneID 43174),1,0.26,-0.18,0.82,0.47
dysf (GeneID 43174),2,-2.71,-0.08,1.3,1.44
dysf (GeneID 43174),3,0.08,0.29,0.34,-0.4
dysf (GeneID 43174),4,-0.77,-3.06,-3.32,-1.81
